Measurements reported in PubChem BioAssay AID1224830 (NIAID, 2016)

Test: 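Genes whose knock-down alters the TNF-alpha reporter response to LPS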 (primary screen)
Cells: human THP-1 monocytic leukaemia cells, TNF dual-luciferase reporter clone, PMA-differentiated to macrophage-like cells
Reagents: siRNA pool against human genes, 50 nM
Timing: LPS for 4 h, given about 3 days after siRNA transfection
Treatment: bacterial LPS (TLR4 ligand), 10 ng/ml
Read-out: 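TNF firefly reporter luminescence divided by renilla, normalised to the plate median, then turned into a robust z-score for each replicate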
Scale: TNF reporter robust z-score: higher = stronger TNF reporter response to LPS
Rule for the call: 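a well is active when its z-score exceeds 2.8 or falls below -1.5; control wells carry no call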
This is a random part of about 18,000 reagents. About 2,900 of them (16%) count as active. 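Calls are made per well; low scores hint the gene aids the LPS response, high scores that it dampens it.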 Repeated entries: four replicate wells of each siRNA pool.

{"Target gene": "NALF2", "TNF reporter robust z-score": 2.07, "activity call": "inactive"}
{"Target gene": "NALF2", "TNF reporter robust z-score": 1.39, "activity call": "inactive"}
{"Target gene": "NALF2", "TNF reporter robust z-score": 1.11, "activity call": "inactive"}
{"Target gene": "NALF2", "TNF reporter robust z-score": 0.54, "activity call": "inactive"}
{"Target gene": "CSGALNACT1", "TNF reporter robust z-score": -1.4, "activity call": "inactive"}
{"Target gene": "CSGALNACT1", "TNF reporter robust z-score": -1.2, "activity call": "inactive"}
{"Target gene": "CSGALNACT1", "TNF reporter robust z-score": -1.41, "activity call": "inactive"}
{"Target gene": "CSGALNACT1", "TNF reporter robust z-score": -1.26, "activity call": "inactive"}
{"Target gene": "TRPC3", "TNF reporter robust z-score": 0.45, "activity call": "inactive"}
{"Target gene": "TRPC3", "TNF reporter robust z-score": -0.41, "activity call": "inactive"}
{"Target gene": "TRPC3", "TNF reporter robust z-score": -1.46, "activity call": "inactive"}
{"Target gene": "TRPC3", "TNF reporter robust z-score": 0.69, "activity call": "inactive"}
{"Target gene": "CPNE4", "TNF reporter robust z-score": 0.92, "activity call": "inactive"}
{"Target gene": "CPNE4", "TNF reporter robust z-score": -0.04, "activity call": "inactive"}
{"Target gene": "CPNE4", "TNF reporter robust z-score": -0.06, "activity call": "inactive"}
{"Target gene": "CPNE4", "TNF reporter robust z-score": 0.66, "activity call": "inactive"}
{"Target gene": "PLA2G10", "TNF reporter robust z-score": -0.05, "activity call": "inactive"}
{"Target gene": "PLA2G10", "TNF reporter robust z-score": -0.61, "activity call": "inactive"}
{"Target gene": "PLA2G10", "TNF reporter robust z-score": 0.21, "activity call": "inactive"}
{"Target gene": "PLA2G10", "TNF reporter robust z-score": 0.48, "activity call": "inactive"}
{"Target gene": "DKK4", "TNF reporter robust z-score": 0.74, "activity call": "inactive"}
{"Target gene": "DKK4", "TNF reporter robust z-score": 1.76, "activity call": "inactive"}
{"Target gene": "DKK4", "TNF reporter robust z-score": 1.23, "activity call": "inactive"}
{"Target gene": "DKK4", "TNF reporter robust z-score": 1.11, "activity call": "inactive"}
{"Target gene": "KCNH6", "TNF reporter robust z-score": 0.75, "activity call": "inactive"}
{"Target gene": "KCNH6", "TNF reporter robust z-score": -0.66, "activity call": "inactive"}
{"Target gene": "KCNH6", "TNF reporter robust z-score": -0.5, "activity call": "inactive"}
{"Target gene": "KCNH6", "TNF reporter robust z-score": 1.81, "activity call": "inactive"}

Not a retest: 3 of the entries above.
{"Target gene": "DKK4", "TNF reporter robust z-score": 1.23, "activity call": "inactive"}
{"Target gene": "DKK4", "TNF reporter robust z-score": 1.11, "activity call": "inactive"}
{"Target gene": "KCNH6", "TNF reporter robust z-score": 0.75, "activity call": "inactive"}

Next results follow:
{"Target gene": "ATP1A1", "TNF reporter robust z-score": -0.34, "activity call": "inactive"}
{"Target gene": "ATP1A1", "TNF reporter robust z-score": -1.45, "activity call": "inactive"}
{"Target gene": "ATP1A1", "TNF reporter robust z-score": -0.76, "activity call": "inactive"}
{"Target gene": "ATP1A1", "TNF reporter robust z-score": 0.4, "activity call": "inactive"}
{"Target gene": "PLD4", "TNF reporter robust z-score": -1.07, "activity call": "inactive"}
{"Target gene": "PLD4", "TNF reporter robust z-score": -0.94, "activity call": "inactive"}
{"Target gene": "PLD4", "TNF reporter robust z-score": -0.83, "activity call": "inactive"}
{"Target gene": "PLD4", "TNF reporter robust z-score": -0.85, "activity call": "inactive"}
{"Target gene": "B3GAT3", "TNF reporter robust z-score": -0.58, "activity call": "inactive"}
{"Target gene": "B3GAT3", "TNF reporter robust z-score": -1.28, "activity call": "inactive"}
{"Target gene": "B3GAT3", "TNF reporter robust z-score": -1.2, "activity call": "inactive"}
{"Target gene": "B3GAT3", "TNF reporter robust z-score": -0.73, "activity call": "inactive"}
{"Target gene": "FAS", "TNF reporter robust z-score": 0.65, "activity call": "inactive"}
{"Target gene": "FAS", "TNF reporter robust z-score": 1.17, "activity call": "inactive"}
{"Target gene": "FAS", "TNF reporter robust z-score": -0.59, "activity call": "inactive"}
{"Target gene": "FAS", "TNF reporter robust z-score": 0.24, "activity call": "inactive"}
{"Target gene": "TRIM60", "TNF reporter robust z-score": -0.05, "activity call": "inactive"}
{"Target gene": "TRIM60", "TNF reporter robust z-score": 2.73, "activity call": "inactive"}
{"Target gene": "TRIM60", "TNF reporter robust z-score": 2.46, "activity call": "inactive"}
{"Target gene": "TRIM60", "TNF reporter robust z-score": 0.29, "activity call": "inactive"}
{"Target gene": "HSF4", "TNF reporter robust z-score": -0.33, "activity call": "inactive"}
{"Target gene": "HSF4", "TNF reporter robust z-score": 1.92, "activity call": "inactive"}
{"Target gene": "HSF4", "TNF reporter robust z-score": 1.44, "activity call": "inactive"}
{"Target gene": "HSF4", "TNF reporter robust z-score": 1.16, "activity call": "inactive"}
{"Target gene": "NRM", "TNF reporter robust z-score": 1.25, "activity call": "inactive"}
{"Target gene": "NRM", "TNF reporter robust z-score": -0.3, "activity call": "inactive"}
{"Target gene": "NRM", "TNF reporter robust z-score": -0.34, "activity call": "inactive"}
{"Target gene": "NRM", "TNF reporter robust z-score": -0.13, "activity call": "inactive"}
{"Target gene": "RBBP7", "TNF reporter robust z-score": 0.42, "activity call": "inactive"}
{"Target gene": "RBBP7", "TNF reporter robust z-score": 1.66, "activity call": "inactive"}
{"Target gene": "RBBP7", "TNF reporter robust z-score": 0.57, "activity call": "inactive"}
{"Target gene": "RBBP7", "TNF reporter robust z-score": 0.71, "activity call": "inactive"}
